± gives the standard deviation of the averaged measurements. The list shows a part of the results.
Compound: Nc1nc2c(ncn2[C@@H]2O[C@H](COP(=O)(O)OP(=O)(O)OP(=O)(O)O)[C@@H](O)[C@H]2O)c(=O)[nH]1 [guanosine triphosphate]
Assay: NP40-soluble protein abundance relative to vehicle (solubility fold change) (ratio); higher = more soluble protein in presence of GTP
Procedure: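 Solubility proteome profiling in Jurkat crude lysate. Lysate was treated with Mg-GTP (0.1-10 mM) for 10 min at room temperature and 3 min at 37 °C, then solubilised with 0.8% NP40 and benzonase, followed by ultracentrifugation. Proteins were quantified by TMT10 LC-MS/MS; the value is the NP40-soluble abundance relative to the NP40-processed vehicle, from 3 independent experiments.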

Chains of the proteins cited; added tags and fusions are not shown. Lines headed by an entry give the natural chain unless they say otherwise; changes in a name come on top.
UniProt Q9UBK8: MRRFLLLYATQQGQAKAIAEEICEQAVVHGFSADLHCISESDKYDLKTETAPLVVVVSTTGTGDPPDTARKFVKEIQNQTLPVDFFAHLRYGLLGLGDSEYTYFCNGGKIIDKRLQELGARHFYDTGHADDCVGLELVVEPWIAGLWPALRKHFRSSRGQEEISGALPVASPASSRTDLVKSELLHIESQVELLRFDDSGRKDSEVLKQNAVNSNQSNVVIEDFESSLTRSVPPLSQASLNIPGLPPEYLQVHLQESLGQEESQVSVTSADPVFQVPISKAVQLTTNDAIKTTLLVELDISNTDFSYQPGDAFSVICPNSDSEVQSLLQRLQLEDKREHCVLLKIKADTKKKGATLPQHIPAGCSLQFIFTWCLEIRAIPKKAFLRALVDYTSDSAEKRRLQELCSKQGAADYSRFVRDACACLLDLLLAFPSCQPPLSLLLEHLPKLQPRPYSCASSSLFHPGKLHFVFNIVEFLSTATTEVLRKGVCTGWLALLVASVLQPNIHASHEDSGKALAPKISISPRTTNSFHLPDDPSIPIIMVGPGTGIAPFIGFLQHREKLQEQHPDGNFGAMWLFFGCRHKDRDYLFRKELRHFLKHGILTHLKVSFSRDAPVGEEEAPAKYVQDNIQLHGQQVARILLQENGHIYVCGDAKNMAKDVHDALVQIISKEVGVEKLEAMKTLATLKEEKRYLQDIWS
UniProt Q9UHB9: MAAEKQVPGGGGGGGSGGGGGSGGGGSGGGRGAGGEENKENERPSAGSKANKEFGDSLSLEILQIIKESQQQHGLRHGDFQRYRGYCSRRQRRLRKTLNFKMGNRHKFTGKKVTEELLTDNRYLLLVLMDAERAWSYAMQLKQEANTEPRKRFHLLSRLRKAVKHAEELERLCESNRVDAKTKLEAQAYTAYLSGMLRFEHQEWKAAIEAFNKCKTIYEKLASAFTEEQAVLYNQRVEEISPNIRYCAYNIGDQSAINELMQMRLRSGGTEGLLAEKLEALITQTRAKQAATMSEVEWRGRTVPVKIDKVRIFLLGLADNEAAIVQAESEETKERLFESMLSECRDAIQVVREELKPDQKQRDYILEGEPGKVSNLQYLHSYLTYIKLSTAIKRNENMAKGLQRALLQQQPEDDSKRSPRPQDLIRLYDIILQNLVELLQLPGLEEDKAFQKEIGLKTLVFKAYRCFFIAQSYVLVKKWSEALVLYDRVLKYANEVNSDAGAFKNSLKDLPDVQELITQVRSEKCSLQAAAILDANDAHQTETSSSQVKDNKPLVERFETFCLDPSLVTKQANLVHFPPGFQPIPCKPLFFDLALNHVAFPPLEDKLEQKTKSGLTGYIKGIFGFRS
UniProt Q9P2W1: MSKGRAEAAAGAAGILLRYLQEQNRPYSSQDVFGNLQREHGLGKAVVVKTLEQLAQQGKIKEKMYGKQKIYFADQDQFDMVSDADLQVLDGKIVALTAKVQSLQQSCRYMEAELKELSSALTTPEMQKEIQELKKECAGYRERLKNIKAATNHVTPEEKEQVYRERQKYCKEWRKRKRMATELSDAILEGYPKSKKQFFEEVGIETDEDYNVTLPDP
UniProt Q9NWT6: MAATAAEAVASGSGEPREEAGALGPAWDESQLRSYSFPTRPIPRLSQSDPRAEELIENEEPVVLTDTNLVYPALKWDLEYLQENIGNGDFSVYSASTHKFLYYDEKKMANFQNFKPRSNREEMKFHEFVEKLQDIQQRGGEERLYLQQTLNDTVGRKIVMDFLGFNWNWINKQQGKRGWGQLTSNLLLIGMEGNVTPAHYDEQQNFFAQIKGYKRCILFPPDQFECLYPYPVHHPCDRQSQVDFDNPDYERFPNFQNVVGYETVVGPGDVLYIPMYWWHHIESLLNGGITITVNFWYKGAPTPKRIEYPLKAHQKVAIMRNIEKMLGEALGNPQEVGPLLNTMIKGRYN
UniProt Q9P2M7: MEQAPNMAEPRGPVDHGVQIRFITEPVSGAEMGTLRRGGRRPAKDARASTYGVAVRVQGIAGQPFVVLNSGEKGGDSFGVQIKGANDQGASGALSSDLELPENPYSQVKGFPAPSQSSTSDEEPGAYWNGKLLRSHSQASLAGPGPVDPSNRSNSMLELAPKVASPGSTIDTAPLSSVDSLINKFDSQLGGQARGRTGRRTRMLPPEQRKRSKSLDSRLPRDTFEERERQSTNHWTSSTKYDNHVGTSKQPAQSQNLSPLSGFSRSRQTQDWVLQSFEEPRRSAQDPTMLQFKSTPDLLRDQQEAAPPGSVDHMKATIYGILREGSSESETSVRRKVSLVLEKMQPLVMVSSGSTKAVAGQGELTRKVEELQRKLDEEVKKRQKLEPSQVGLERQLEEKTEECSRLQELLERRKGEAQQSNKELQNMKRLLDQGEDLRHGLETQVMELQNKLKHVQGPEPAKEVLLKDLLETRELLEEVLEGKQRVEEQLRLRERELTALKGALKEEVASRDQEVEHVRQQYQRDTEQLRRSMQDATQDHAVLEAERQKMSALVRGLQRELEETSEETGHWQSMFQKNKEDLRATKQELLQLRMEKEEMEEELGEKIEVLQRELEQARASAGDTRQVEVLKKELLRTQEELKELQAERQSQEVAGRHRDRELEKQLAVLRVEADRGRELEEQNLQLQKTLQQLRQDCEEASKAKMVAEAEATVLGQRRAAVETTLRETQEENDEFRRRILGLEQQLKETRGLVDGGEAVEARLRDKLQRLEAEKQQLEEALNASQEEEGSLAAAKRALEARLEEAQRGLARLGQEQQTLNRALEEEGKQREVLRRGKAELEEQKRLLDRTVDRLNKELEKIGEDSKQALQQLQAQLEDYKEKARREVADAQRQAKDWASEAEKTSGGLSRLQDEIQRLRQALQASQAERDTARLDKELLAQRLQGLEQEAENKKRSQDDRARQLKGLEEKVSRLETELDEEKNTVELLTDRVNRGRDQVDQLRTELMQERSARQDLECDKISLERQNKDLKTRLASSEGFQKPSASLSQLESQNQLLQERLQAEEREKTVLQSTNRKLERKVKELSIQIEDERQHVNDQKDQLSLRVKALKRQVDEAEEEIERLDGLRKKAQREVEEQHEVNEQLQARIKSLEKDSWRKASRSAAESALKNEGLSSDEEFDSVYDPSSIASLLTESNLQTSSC

Target	NP40-soluble protein abundance (concentration: 0.1mM)	NP40-soluble protein abundance (concentration: 0.5mM)	NP40-soluble protein abundance (concentration: 1mM)	NP40-soluble protein abundance (concentration: 2mM)	NP40-soluble protein abundance (concentration: 4mM)	NP40-soluble protein abundance (concentration: 6mM)	NP40-soluble protein abundance (concentration: 8mM)	NP40-soluble protein abundance (concentration: 10mM)
UniProt Q9UBK8 and related entries	0.969 ± 0.064	1.04 ± 0.1	0.929 ± 0.024	0.974 ± 0.069	0.95 ± 0.047	0.993 ± 0.085	0.932 ± 0.042	0.976 ± 0.072
SRP68 (UniProt Q9UHB9)	0.949 ± 0.033	0.955 ± 0.034	0.981 ± 0.033	1 ± 0.044	1.04 ± 0.033	1.04 ± 0.044	1.05 ± 0.032	1.06 ± 0.045
UniProt Q9P2W1 and related entries	0.896 ± 0.054	0.863 ± 0.084	0.987 ± 0.024	0.995 ± 0.062	1.02 ± 0.051	0.969 ± 0.081	0.962 ± 0.08	1.04 ± 0.017
HIF1AN (UniProt Q9NWT6)	0.991 ± 0.021	1.04 ± 0.022	0.928 ± 0.0097	0.896 ± 0.025	0.866 ± 0.053	0.886 ± 0.063	0.882 ± 0.038	0.861 ± 0.042
CGN (UniProt Q9P2M7)	1.06 ± 0.036	1.07 ± 0.043	1.11 ± 0.031	1.06 ± 0.064	1.08 ± 0.043	1.07 ± 0.035	1.12 ± 0.036	1.12 ± 0.071

From the supplement of paper PMC6411743
